Results from PubChem BioAssay AID1671190 (National Center for Advancing Translational Sciences (NCATS), 2021).
Screen size: about 580,000 compounds; about 6,100 (1.1%) were called active. Inconclusive results, whose numbers are uncertain, are shown with a selection of clear calls. Calls follow the shape of the dose curve; as a rule, active = well fitted inhibition curve with a large enough effect; inconclusive = small, poorly fitted or top-dose-only effect, or another doubt; inactive = no such curve, though single readings can be large or run the other way. Potencies of inconclusive entries are doubtful fits and often do not repeat.

Protein sequences, listed by entry. Tags and fused reporters are not part of them. Lines headed by an entry give the natural chain unless they say otherwise; changes in a name come on top.
UniProt P18054: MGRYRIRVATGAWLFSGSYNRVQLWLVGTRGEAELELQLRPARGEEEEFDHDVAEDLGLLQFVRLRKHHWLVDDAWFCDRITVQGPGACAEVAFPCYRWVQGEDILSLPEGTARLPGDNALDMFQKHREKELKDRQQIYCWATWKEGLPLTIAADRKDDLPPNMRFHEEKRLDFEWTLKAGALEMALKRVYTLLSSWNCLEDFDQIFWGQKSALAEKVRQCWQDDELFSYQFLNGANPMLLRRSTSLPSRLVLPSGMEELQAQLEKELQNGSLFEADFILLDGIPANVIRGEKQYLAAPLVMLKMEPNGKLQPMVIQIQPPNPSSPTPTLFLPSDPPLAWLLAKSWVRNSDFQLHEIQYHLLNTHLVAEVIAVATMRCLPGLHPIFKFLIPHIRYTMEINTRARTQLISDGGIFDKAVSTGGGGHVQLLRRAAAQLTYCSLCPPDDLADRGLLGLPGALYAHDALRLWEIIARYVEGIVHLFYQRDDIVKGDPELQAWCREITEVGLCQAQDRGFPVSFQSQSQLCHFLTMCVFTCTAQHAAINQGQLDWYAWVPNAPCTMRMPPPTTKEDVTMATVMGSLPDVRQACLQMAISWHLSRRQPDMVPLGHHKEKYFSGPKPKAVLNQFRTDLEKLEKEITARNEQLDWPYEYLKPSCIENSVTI

These compounds were tested against Polyunsaturated fatty acid lipoxygenase ALOX12 (Homo sapiens) (UniProt P18054) (assay: Primary qHTS assay for inhibitors of human arachidonate 12S-lipoxygenase (ALOX12): Round 2). Settings: purified 12hLO, xylenol orange hydroperoxide absorbance; activity change, negative = inhibition: at 108 µM (top of the series) unless noted.
Outline: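 Hydroperoxide product was detected by ferrous iron/xylenol orange as the 573 to 405 nm absorbance ratio. Arachidonic acid at 40 uM (final) was turned over for 30 min at room temperature by 150 nM human 12hLO, pH 7.0 Hepes buffer, after 15 min compound preincubation.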
% is scaled to controls: 0 for no effect and ±100 for the full control effect; potency is read from the fitted curve at half-maximal effect.

| Compound | Potency | activity change, negative = inhibition |
| --- | --- | --- |
| CCN(CC)CCCNc1oc(-c2ccccc2)nc1C#N | inconclusive: 89.1 µM [inhibitor, partial curve, poor fit] |  |
| Cc1cc(C)c(C(=O)OCC(=O)N2CCN(S(=O)(=O)c3ccc4ccccc4c3)CC2)c(C)c1 | inconclusive: 1.41 µM [inhibitor, partial curve, poor fit] |  |
| COc1ccc(-c2nc3c(c(SCC(=O)Nc4cccc(O)c4)n2)Cc2c(CO)cnc(C)c2O3)cc1 | inconclusive: 12.6 µM [inhibitor, full curve] |  |
| C[C@]12CC[C@H](O)CC1=CCC1C2CC[C@@]2(C)C1CC[C@@H]2NC(=O)[C@@H](N)Cc1ccccc1 (stereo partly drawn) | inconclusive: 79.4 µM [inhibitor, partial curve, poor fit] |  |
| O=C(Nc1cccc(Cl)c1)N1CCN(C/C=C/c2ccccc2)CC1 | inconclusive: 56.2 µM [inhibitor, partial curve, poor fit] |  |
| O=C(O)CCCNS(=O)(=O)c1ccc(I)cc1 |  | inactive: -1.11% |
| COC(=O)C(NC(=O)OCc1ccccc1)(c1ccc(Br)cc1)C(Nc1ccccc1)c1ccccc1 (stereo not drawn) |  | inactive: -32.1% |
| CC(Sc1nnc(C(F)(F)F)n1C)C(=O)Nc1ccc(S(N)(=O)=O)cc1 (stereo not drawn) |  | inactive: 27.5% |
| O=C(NCc1ccc(Cl)cc1)c1cc2c(s1)-c1ccccc1SC2 | inconclusive: 7.94 µM [inhibitor, full curve, poor fit] |  |
| COc1cc(NC(=O)Cn2c(Nc3ccc(F)c(C)c3)nc(C)cc2=O)cc(OC)c1OC | inconclusive: 89.1 µM [inhibitor, single point] |  |
| CC1CCc2onc(C(=O)N3CCN(c4ccccc4)CC3)c2C1 (stereo not drawn) |  | inactive: -21.7% |
| N#C/C(=N\Nc1cccc(C(F)(F)F)c1)C(=O)c1csc(-c2cccnc2)n1 | inconclusive: 31.6 µM [inhibitor, partial curve, poor fit] |  |
| C=Cc1ccc(N=Cc2c(O)ccc3ccccc23)cc1 | inconclusive: 44.7 µM [inhibitor, partial curve, poor fit] |  |
| Cc1cc(C)c(CN2CCC(n3cc(C(C)(C)N)nn3)CC2)c(C)c1 | inconclusive: 15.8 µM [inhibitor, full curve, poor fit] |  |
| CC1=CCCC(C)(C)C1/C=C/C(C)=N\Nc1nc2ccccc2[nH]1 (stereo not drawn) | inconclusive: 39.8 µM [inhibitor, partial curve, poor fit] |  |
| Cc1cc2ncn(/N=C/c3ccc(-c4ccccc4)o3)c2cc1C | inconclusive: 44.7 µM [inhibitor, partial curve, poor fit] |  |
| O=C(O)c1ccc(N/N=C/c2ccc(OC(=O)c3ccccc3Cl)cc2)cc1 | inconclusive: 112 µM [inhibitor, single point] |  |
| O=C(/C=C/c1ccco1)Nc1ccccc1N1CCCCC1 |  | inactive: 0.736% |
| CCCN1CCN(CCCNC(=O)c2ccc3c(c2)sc2nc(-c4ccc(OC)cc4)cn23)CC1 | inconclusive: 141 µM [inhibitor, partial curve, poor fit] |  |
| CCOc1cc2[nH]c(=S)n(Cc3ccc(C(=O)NCCCN4CCOCC4)cc3)c(=O)c2cc1OCC |  | inactive: 16% |
| Oc1c(/C=N/c2ncn[nH]2)ccc2ccccc12 |  | inactive: -3.73% |
| Cc1ccc(NC2(c3nnnn3-c3ccc(C)cc3)CCCCC2)cc1 |  | inactive: 12.6% |
| CC(=O)Nc1cccc(-c2nccc3c(=O)cc(N4CCOCC4)oc23)c1 | inconclusive: 35.5 µM [inhibitor, partial curve] |  |

| Compound | Potency | activity change, negative = inhibition |
| --- | --- | --- |
| COCCCNC(=O)Nc1ccc2nc(N3CCOCC3)cc(C)c2c1 |  | inactive: 5.31% |
| Cc1ccoc1C(=O)NCc1ccc(COCC(F)(F)F)cc1 |  | inactive: 2.61% |
| O=C(Cc1ccsc1)N1CCc2c([nH]c3ccccc23)C1c1ccccn1 (stereo not drawn) |  | inactive: -23.5% |
| O=C(NCCCSc1ccccc1)c1cc(Cl)ccc1O | inconclusive: 50.1 µM [inhibitor, partial curve, poor fit] |  |
| COc1ccc(C(=O)NC2CCCCC2)cc1C |  | inactive: -1.63% |
| CC(C)(C)N=Cc1cc(Br)ccc1O | active: 56.2 µM |  |
| Fc1ccc(-c2nnc(CN3CCN(c4ncc(C(F)(F)F)cc4Cl)CC3)o2)cc1 |  | inactive: 0% |
| Cc1ccc(NC(=O)CSc2nc3ccccc3o2)cc1 |  | inactive: -13.1% |
| CC(=O)N(c1ccc2oc(=O)sc2c1)S(=O)(=O)c1cccc2cccnc12 | inconclusive: 22.4 µM [inhibitor, partial curve] |  |
| CCCOc1ccc(C(C)(O)CN2CCOCC2)cc1 (stereo not drawn) | inconclusive: 50.1 µM [inhibitor, partial curve, poor fit] |  |
| O=C1CCCC2=C1C(c1ccc(Cl)cc1)C1=C(CCCC1=O)O2 | inconclusive: 28.2 µM [inhibitor, partial curve, poor fit] |  |
| CCCn1nc2cc(C(=O)N(CC)c3ccc(OC)cc3)ccc2c1OCC | inconclusive: 100 µM [inhibitor, partial curve, poor fit] |  |
| Cc1ccccc1Cn1c(CN2CCC(C(=O)NCc3cccnc3)CC2)cc2ccccc21 | inconclusive: 158 µM [inhibitor, partial curve, poor fit] |  |
| C=CCOc1ccc(C2C(C(=O)c3cccs3)=C(O)C(=O)N2c2nnc(C)s2)cc1 (stereo not drawn) | inconclusive: 35.5 µM [inhibitor, single point] |  |
| N#Cc1ccc(OCC(O)CNCCC2=CCCCC2)cc1 (stereo not drawn) |  | inactive: 5.82% |
| CC(C)Cc1cc(C(=O)N2CCCC(CCC(=O)N(C)CCc3ccccn3)C2)no1 (stereo not drawn) | inconclusive: 112 µM [inhibitor, single point] |  |
| N=c1sccn1CC(=O)Nc1cccc(Oc2ccccc2)c1 | inconclusive: 112 µM [inhibitor, single point] |  |
| Cn1c(SCC(=O)N2CCOCC2)ncc(C(=O)Nc2ccccc2)c1=O |  | inactive: 4.82% |
| O=C(Nc1ccc(O)cc1)c1ccccc1OCc1ccccc1 | inconclusive: 112 µM [inhibitor, single point] |  |
| COc1ccc(Cl)cc1NC(=S)NCCc1c[nH]c2ccccc12 | inconclusive: 39.8 µM [inhibitor, partial curve, poor fit] |  |
| O=c1c2cc3c(cc2[nH]c(=S)n1Cc1ccco1)OCO3 | inconclusive: 39.8 µM [inhibitor, partial curve, poor fit] |  |
| C[C@H](NC(=O)c1ccco1)C(=O)Nc1ccc(S(=O)(=O)N2CCCC2)cc1 | inconclusive: 5.01 µM [inhibitor, partial curve, poor fit] |  |
| COc1ccc(NC(=S)N2CCCN(Cc3cc(C)ccc3C)C2)cc1 | inconclusive: 50.1 µM [inhibitor, partial curve, poor fit] |  |

One compound at a time (already shown).
`Cc1ccccc1Cn1c(CN2CCC(C(=O)NCc3cccnc3)CC2)cc2ccccc21` in the list: Potency: inconclusive: 158 µM [inhibitor, partial curve, poor fit]
`CCCn1nc2cc(C(=O)N(CC)c3ccc(OC)cc3)ccc2c1OCC` in the list: Potency: inconclusive: 100 µM [inhibitor, partial curve, poor fit]
`O=c1c2cc3c(cc2[nH]c(=S)n1Cc1ccco1)OCO3` in the list: Potency: inconclusive: 39.8 µM [inhibitor, partial curve, poor fit]
`O=C(Nc1ccc(O)cc1)c1ccccc1OCc1ccccc1` in the list: Potency: inconclusive: 112 µM [inhibitor, single point]

The list continues.

| Compound | Potency | activity change, negative = inhibition |
| --- | --- | --- |
| COC(=O)CCC(=O)OC1(C)C(=O)C2=CN(c3ccccc3)C(c3ccc(OC)cc3)=CC2=C(Br)C1=O (stereo not drawn) | active: 39.8 µM |  |
| CN(Cc1nc2ccccc2c(=O)[nH]1)C(=O)c1cc(-c2ccc(Br)cc2)nc2ccccc12 |  | inactive: -23.3% |
| N#CC1=C(N)OC2=C(CCc3ccccc32)C1c1ccccc1 (stereo not drawn) |  | inactive: -26% |
| Cc1ccc(C(CCN(Cc2ccccc2)C(=O)c2ccco2)c2ccco2)cc1 (stereo not drawn) | inconclusive: 44.7 µM [inhibitor, partial curve, poor fit] |  |
| C[C@H](CO)N1C[C@H](C)[C@@H](CN(C)S(=O)(=O)c2ccc(F)cc2)Oc2c(NC(=O)Nc3ccc4c(c3)OCO4)cccc2C1=O |  | inactive: -27.2% |
| Cn1cc(CN2CCCCC2CO)c(-c2ccc(Oc3ccccc3)cc2)n1 (stereo not drawn) |  | inactive: -4.81% |
| COc1ccc(-c2nc(C#N)c(NCc3ccco3)o2)cc1 | inconclusive: 31.6 µM [inhibitor, partial curve, poor fit] |  |
| Cc1oc2cc3o/c(=N/O)c4c(c3cc2c1C)CCC4 | inconclusive: 2.51 µM [inhibitor, full curve, poor fit] |  |
| CCCC(=O)Nc1ccccc1NC(=O)c1cc(OC)c(OC)c(OC)c1 |  | inactive: 8.46% |
| CSCCC(NS(=O)(=O)Cc1ccccc1)C(=O)NNc1ccccc1 (stereo not drawn) | inconclusive: 44.7 µM [inhibitor, partial curve, poor fit] |  |
| CCN(CC)S(=O)(=O)c1ccc(=O)n(Cc2cc(=O)oc3c(C)c(C)ccc23)c1 | inconclusive: 1.41 µM [inhibitor, full curve] |  |
| COc1cc(C)cc(C(=O)C=Cc2ccccc2)c1O |  | inactive: -1.74% |
| Cc1c(C)n(Cc2ccccc2)c2ccc(C(=O)NCc3ccccc3F)cc12 | inconclusive: 100 µM [inhibitor, partial curve, poor fit] |  |
| CCCCNC(=O)C1(C)CCN1C(=O)c1cc2ccccc2s1 (stereo not drawn) | inconclusive: 141 µM [inhibitor, single point] |  |
| O=C(c1cnn(-c2cccc(F)c2)c1-n1cccc1)N1CCN(c2ccccc2F)CC1 | inconclusive: 44.7 µM [inhibitor, partial curve, poor fit] |  |
| Cc1cc(C(=O)OCC(=O)c2cc(C)n(C)c2C)c2ccccc2n1 |  | inactive: 18.6% |
| CCc1ccc(C(=O)COC(=O)Cc2ccsc2)cc1 | inconclusive: 50.1 µM [inhibitor, single point] |  |
| Cc1cc(C)c2nc(N3CCN(C(=O)CCS(=O)(=O)c4ccccc4)CC3)sc2c1 | inconclusive: 158 µM [inhibitor, single point] |  |
| COC(=O)C1=C(C)NC(C)=C(C(=O)OC)C1c1cn(-c2ccccc2)nc1-c1ccco1 | inconclusive: 50.1 µM [inhibitor, partial curve, poor fit] |  |
| CS(=O)(=O)c1ccc(C(=O)OCC(=O)N2CCOCC2)cc1[N+](=O)[O-] |  | inactive: -19.1% |
| Nc1cccc2[nH]c(C(F)(F)F)nc12 | inconclusive: 50.1 µM [inhibitor, partial curve, poor fit] |  |
| Cc1ccc(C(=O)N(Cc2ccco2)C2CC2)cc1C |  | inactive: 12.9% |
